This assay concerns MCF-7 cells. The experiment in a line: Cytotoxicity study of DOX loaded shells vs free doxorubicin solution and empty shells. The settings on record: incubated in culture media for 5 days.

As usually defined, the IC50 is the concentration needed to halve the response being measured. Read a low IC50 as greater potency.

As for `COc1cccc2c1C(=O)c1c(O)c3c(c(O)c1C2=O)C[C@@](O)(C(=O)CO)C[C@@H]3O[C@H]1C[C@H](N)[C@H](O)[C@H](C)O1.Cl` [Doxorubicin solution, Doxorubicin], 12 ± 2 nM corresponded to half-maximal inhibition (IC50).

The record behind these values is patent publication US20050058603A1, “Drug delivery system based on polymer nanoshells” (Case Western Reserve University, priority 2003, published 2005).
